This is an account of results in patent publication EP0406111A1, “Substituted arylamines and heteroarylamines, process for their preparation and pharmaceutical composition containing them” (SOCIETE DE CONSEILS DE […] D'APPLICATIONS SCIENTIFIQUES …, priority 1989, dated 1991).

In this assay the target is récepteur de la PCP. As to the kind of experiment: Competition binding at the (3H)TCP sites on rat brain homogenates (Example 36). To be noted: 1 nM (3H)TCP, 30 min at 25°C. An excerpt:
Exemple 36 : Affinité des composés pour les sites de liaison de la (³H)TCP sur les homogénats de cerveaux de rats.
Dans cet essai on mesure les affinités des composés pour le récepteur de la PCP par des expériences de compétition sur des homogénats de cerveaux de rats. Le ligand radioactif utilisé est la (³H)TCP à une activité spécifique de 62 Ci/mmol (Service des Molécules Marquées, CEA Saclay France).
Les cerveaux de rats (sans le cervelet et le tronc cérébral) sont homogénéisés à l'ultra turax dans 20 volumes de tampon Hepes-Tris 50 mM, pH 7,7. Après centrifugation pendant 30 min à 15000 g le culot est repris dans le même volume de tampon et recentrifugé dans les mêmes conditions. Le culot final est repris dans du tampon Hepes-Tris 50 mM, pH 7,7 de façon à obtenir une concentration en protéine de 6 à 8 mg/ml.
Les expériences de compétition sont réalisées en incubant pendant 30 min les membranes (concentration finale en protéine : 0,6 à 0,8 mg/ml) en milieu tampon 5 mM Hepes-Tris, pH 7,7 à 25°C, en présence d'une concentration fixe de ligand tritié (1 nM)et de concentrations croissantes de composés à tester. Trois échantillons de 600 µL sont ensuite filtrés sur filtres de fibres de verre GF/B prétraités par du PEI (polyéthylénimine) à 0,1%. […]

The IC50 is the concentration that gives 50% inhibition. The low end stands for inhibition by little substance, the high end for a need for much substance. Consider `O=C(CCCN1CCC(O)(c2ccc(Cl)cc2)CC1)c1ccc(F)cc1` [Halopéridol, reference compound], for which the IC50 came to 520 µM.
